# Data taken from EP1165099B1, “ANGIOTENSIN II AND ANALOGS THEREOF FOR LIMITING SCAR AND ADHESION FORMATION” (UNIVERSITY OF SOUTHERN CALIFORNIA, priority 1999, dated 2006).
# Entries after “also recorded” stand apart in the source; their conditions may differ. At least one peptide structure holds a part that was inferred or is arguable (an end, a ring closure or a residue). Peptide text beside a SMILES is read from it.
# Test: Unspecified effectiveness test of AII fragments
# Conditions: test not described
compound,measurement,value
"CC[C@H](C)[C@H](NC(=O)[C@@H](N)Cc1ccc(O)cc1)C(=O)N[C@@H](Cc1c[nH]cn1)C(=O)N1CCC[C@H]1C(=O)N[C@@H](Cc1ccccc1)C(=O)O [AII(4-8), Tyr-Ile-His-Pro-Phe] (H-YIHPF-OH)",effectiveness,not to be effective; also recorded: ineffective
